From US5352595

Experiments:
Assay in all cases: EMSA
MyoD:E12 heterodimer = tested on: MyoD:E12 heterodimer
[1] = tested on: CAAT binding factor (chick skeletal muscle nuclear extract) (Gallus gallus); details: protein in an extract
[2] = tested on: SP1-site binding nuclear factor (chick muscle and dermal fibroblast nuclear extract) (Gallus gallus); details: protein in an extract

“GGCAGGCTGCA (double strand) [myoD PRR B site (-260)]”: binds more weakly (MyoD:E12 heterodimer).
“CACTCCTATTGGC (double strand) [myoD PRR M-CAT and CAAT oligonucleotide]”: binds [1].
“CCGCCC (double strand) [myoD PRR -110 SP1 site oligonucleotide]”: binds [2].

For part of these data: Weaker means in comparison with the reference protein, sequence or condition of that experiment. For part of these data: The exact form of at least one protein or probe is not confirmed. For part of these data: Results from cells or extracts need not show a direct contact.
